Measurements reported in doi:10.1101/426734.
Results are given in words; binding and its absence hold for the method and conditions named. For some assays here: In cells and extracts the contact can be indirect. Some entries that bind do so weakly or less than the wild type.

How the values were obtained:
[1] = molecular target: GFP-tagged β-Galactosidase [β-galactosidase: P00722]; test: co-IP
[2] = molecular target: endogenous EAAT3 (mouse) (mouse (endogenous in mouse hippocampus and primary neurons)) (UniProt P51906); test: Western blot

binding [1] | binding [2] | Binder
no binding |  | rat EAAT3 (protein, UniProt P51907 1-523) MGKPTSSGCDWRRFLRNHWLLLSTVAAVVLGIVVGVLVRGHSELSNLDKFYFAFPGEILMRMLKLVILPLIISSMITGVAALDSNVSGKIGLRAVVYYFSTTVIAVILGIVLVVSIKPGVTQKVNEINRTGKTPEVSTVDAMLDLIRNMFPENLVQACFQQYKTKREEVKPASDPGGNQTEVSVTTAMTTMSENKTKEYKIVGLYSDGINVLGLIIFCLVFGLVIGKMGEKGQILVDFFNALSDATMKIVQIIMCYMPIGILFLIAGKIIEVEDWEIFRKLGLYMATVLSGLAIHSLVVLPLIYFIVVRKNPFRFALGMAQALLTALMISSSSATLPVTFRCAEEKNHVDKRITRFVLPVGATINMDGTALYEAVAAVFIAQLNGMDLSIGQIITISITATAASIGAAGVPQAGLVTMVIVLSAVGLPAEDVTLIIAVDWLLDRFRTMVNVLGDAFGTGIVEKLSKKELEQVDVSSEVNIVNPFALEPTILDNEDSDTKKSYVNGGFSVDKSDTISFTQTSQF
 | binds | endogenous EAAT3 (mouse) (protein, UniProt P51906 1-523) MGKPTSSGCDWRRFLRNHWLLLSTVAAVVLGIVLGVVVRGHSELSNLDKFYFAFPGEILMRMLKLVILPLIVSSMITGVAALDSNVSGKIGLRAVVYYFSTTVIAVILGIVLVVSIKPGVTQKVNDINRTGKTPEVSTMDAMLDLIRNMFPENLVQACFQQYKTKREEVKPVGDPGGNATEVSVTTAMTTMSENKTKEYKIVGLYSDGINVLGLIIFCLVFGLVIGKMGEKGQILVDFFNALSDATMKIVQIIMCYMPIGILFLIAGKIIEVEDWEIFRKLGLYMATVLSGLAIHSLIVLPLLYFIVVRKNPFRFALGMAQALLTALMISSSSATLPVTFRCAEEKNQVDKRITRFVLPVGATINMDGTALYEAVAAVFIAQLNGLDLSIGQIVTISITATAASIGAAGVPQAGLVTMVIVLSAVGLPAEDVTLIIAVDWLLDRFRTMVNVLGDAFGTGIVEKLSKKELEQMDVSSEVNIVNPFALEPTTLDNEDSDTKKSYVNGGFAVDKSDTISFTQTSQF
